Test results reported in PubChem BioAssay AID652054 (National Center for Advancing Translational Sciences (NCATS), 2013).
Among all 360,000 compounds or so, about 9,100 (2.5%) were called active. Inconclusive results, whose numbers are uncertain, are shown with a selection of clear calls. No stated cut-off is given here; in the data, active means max response below about -50%; inconclusive means no clear call, values can overlap the other calls; inactive means above that.

Amino acid sequences for entries named in this document (tags omitted).
UniProt P35462, whole entry, looked up: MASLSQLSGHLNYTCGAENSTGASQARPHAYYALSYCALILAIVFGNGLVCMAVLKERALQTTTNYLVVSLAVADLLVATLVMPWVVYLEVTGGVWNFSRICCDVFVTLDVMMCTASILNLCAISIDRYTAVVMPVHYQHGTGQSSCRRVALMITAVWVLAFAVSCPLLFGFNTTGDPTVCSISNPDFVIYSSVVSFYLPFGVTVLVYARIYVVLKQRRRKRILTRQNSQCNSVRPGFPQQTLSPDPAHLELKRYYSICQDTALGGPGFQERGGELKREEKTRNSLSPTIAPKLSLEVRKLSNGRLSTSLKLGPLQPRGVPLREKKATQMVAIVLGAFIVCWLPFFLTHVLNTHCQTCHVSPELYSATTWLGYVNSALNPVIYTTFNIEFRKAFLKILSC

Each molecule was assayed against D(3) dopamine receptor (Homo sapiens) (UniProt P35462) (assay: qHTS of D3 Dopamine Receptor Antagonist: qHTS). Conditions: D3R cells, DiscoveRx beta-arrestin luminescence, antagonist mode; stronger effect = lower value.
Procedure, shortened: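 Cells plated overnight at 1500 cells/well, then exposed to library compounds with dopamine controls for 90 minutes at 37 degrees C. DiscoveRx reagent added for 30–60 minutes at room temperature; luminescence read, quantitative HTS format.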
On the % scale 0 is the no-effect control and ±100 the full control effect.

Max response, negative = inhibition, active:
CCc1nnc(NS(=O)(=O)c2ccc(NC(=S)NC(=O)/C=C/c3ccccc3)cc2)s1 -67.9%
COc1ccc(OCCN2CCC(C(=O)NC(c3ccc(F)cc3)c3ncccc3C)CC2)cc1 (configuration not stated) -85.3%
CC(NC(=O)CN(c1cccc(C(F)(F)F)c1)S(=O)(=O)c1ccc(Cl)c([N+](=O)[O-])c1)c1ccccc1 (configuration not stated) -53.8%
CN1CCc2ccccc2Cc2[nH]c3ccccc3c2CC1 -110%
Cc1cc(C(=O)Cn2ncc(Cl)c(Cl)c2=O)c(C)n1CC(F)(F)F -58.8%
O=C(N/N=C(\c1ccccc1)c1cccnc1)c1cccc(F)c1 -75.1%
O=C(/C=C/c1ccccc1Cl)c1ccccc(=O)c1O -77.4%
CCOC(=O)c1c(CN2CCN(C)CC2)oc2ccc(O)cc12 -54.4%
O=C(OCCCN1CCCC1)C1(c2ccccc2)CCCC1 -54.2%
O=C(c1ccc([N+](=O)[O-])cc1[N+](=O)[O-])N1CCc2ccccc21 -51%
Cc1nn(Cc2cccc(C(=O)NC3CCCCC3)c2)c(C)c1Cl -50.6%
Cc1ccc(C(C)C)c(OCCN(C)C)c1 -75.3%
CC(=O)C1=C(O)C(=O)N(c2ccc(S(N)(=O)=O)cc2)C1c1ccc([N+](=O)[O-])cc1 (configuration not stated) -81.5%

Arranged by number of heavy atoms (descending): 3 of the compounds above
Max response, negative = inhibition, active:
Cc1cc(C(=O)Cn2ncc(Cl)c(Cl)c2=O)c(C)n1CC(F)(F)F -58.8%
CN1CCc2ccccc2Cc2[nH]c3ccccc3c2CC1 -110%
Cc1ccc(C(C)C)c(OCCN(C)C)c1 -75.3%

Following part:

Max response, negative = inhibition, inconclusive:
Cc1ccc(C(=O)c2nocc2C(=O)c2cccs2)cc1 -32.4%
COc1ccccc1CNC(=O)C1CCC(CNc2c(N3CCOCC3)c(=O)c2=O)CC1 (configuration not stated) -40.6%
Cn1cc(CCNC(=O)CC2C(=O)NCCN2Cc2cccc(Oc3ccccc3)c2)cn1 (configuration not stated) -32%
O=C(CSCC(=O)NC1CC1)Nc1ccc2ccccc2c1 -35.6%
CCc1ccc(C(O)c2ncc(-c3ccccc3Cl)[nH]2)cc1 (configuration not stated) -35.2%
NC(=O)c1ncc(C(F)(F)F)cc1Oc1ccc(F)cc1 -35.6%
CCOC(=O)c1cnc(Nc2nc3ccccc3o2)nc1CSC(=S)N1CCCCC1 -39.3%
CN1C(C(=O)NCCc2cccs2)CC2Cn3c(nc4cc5ccccc5cc43)C21 (configuration not stated) -46.4%
O=C(/C=C/c1ccc2c(c1)OCO2)NCCSCc1cccc(Cl)c1 -42.8%
Cc1cc(Oc2nc3c(C)cccn3c(=O)c2/C=C(\C#N)S(=O)(=O)c2ccccc2)ccc1Cl -38.2%
Cc1ccc(S(=O)(=O)N(C)C)cc1NC(=O)Nc1c(-c2ccccc2)noc1C -34%
O=C(NC1CCCCC1)C1CC=CCC1C(=O)OCC(Cl)=C(Cl)Cl (configuration not stated) -48.7%
CCCc1ccc(Oc2cc(NN3CCCCC3)c([N+](=O)[O-])cc2[N+](=O)[O-])cc1 -30.3%
C=CCN1C(=O)c2ccc(C(=O)OCC(=O)Nc3ccc(S(N)(=O)=O)cc3)cc2C1=O -31.8%
CC(C)C1C(=O)N(Cc2cn(CC3CCCCC3)nn2)CCS(=O)(=O)N1Cc1ccc(-c2ccccc2)cc1 (configuration not stated) -32.1%
Cc1ccc2[nH]c(C)c(CCNC(=O)c3cc4cc([N+](=O)[O-])ccc4oc3=O)c2c1 -33.9%
Nc1nc(=S)c2ncn(C3OC(CO)CC3O)c2[nH]1 (configuration not stated) -30.3%
Cc1ccc(NC2(c3nnnn3-c3c(C)cccc3C)CCCCC2)cc1 -30.3%
C=C(C(=O)c1ccccc1)C(CC(=O)c1ccccc1)c1ccccc1 (configuration not stated) -31.8%
CC(=O)NC(CC(=O)NCCOc1ccccc1F)c1ccccc1 (configuration not stated) -37.5%
COc1ccc(-c2ccc(C(=O)N3CCN(C)CC3)c3occc23)c(C)c1 -31.1%
COc1ccc(O)c(CN2CCN(CCCc3ccccc3)C(CCO)C2)c1 (configuration not stated) -35.9%
COc1ccc(-c2cc(=O)oc3c(C)c(O)c(CN(C)C)cc23)cc1 -36.6%
O=S1(=O)N=C(N2CCOCC2)c2ccccc21 -46.5%
Cc1nnc(NC(=O)CSc2ccccn2)s1 -31.7%
CCOC(=O)CCP(=O)(O)C(O)c1ccccc1 (configuration not stated) -40.5%
COc1cc(/C=N/O)cc(Br)c1OS(=O)(=O)c1ccc(C)cc1 -33.8%
Cc1ccc(-n2c(C)cc(C(=O)OCC(=O)N(C)C3CCS(=O)(=O)C3)c2C)cc1 (configuration not stated) -41.3%
Cc1cccc(CN2CCC(C(=O)Nc3ccc(Oc4cccnc4)cc3)CC2)c1 -34.1%
O=C(c1ccccc1)c1nc[nH]c1C(=O)Nc1ccccn1 -43.5%
Cc1ccc(S(=O)(=O)N2CCN(CC(=O)N/N=C/c3cc([N+](=O)[O-])ccc3Cl)CC2)cc1 -41.1%
O=S(=O)(c1ccccc1F)N1CCN(Cc2nc3ccccc3[nH]2)CC1 -30.2%
CN1CCN(c2ccc(CNS(=O)(=O)Cc3ccc(Cl)cc3)cc2)CC1 -48%
CC(=O)Nc1ccc(Nc2nccc(C)n2)cc1 -36.6%
COC(=O)c1[nH]c2ccccc2c1NC(=O)CN1CCN(C/C=C/c2ccccc2)CC1 -34.3%
Cc1ccc(N2C(=O)N(CC(=O)Nc3ccccc3C)C(=O)C2C)cc1 (configuration not stated) -30.7%
COc1ccc(C(CNC(=O)c2cccc(S(=O)(=O)N3CCCC3)c2)N2CCCC2)cc1 (configuration not stated) -31.7%
CCCCNC(=O)C1(C)CCCCN1C(=O)c1ccc(F)c(C)c1 (configuration not stated) -32.3%
CC(CN1CCOCC1)OC(=O)C(C)(c1ccccc1)c1ccccc1 (configuration not stated) -39.6%
CC(C)/C=C1\CCCCC1N(C)C(=O)NC(C)C (configuration not stated) -38.3%
CCn1nnc(NC(=O)c2cc(Cl)c(OC)c(Cl)c2)n1 -32.8%
Cc1ccc(-c2nnc(-c3ccccc3S(=O)(=O)Cc3ccc(Cl)cc3)o2)cc1 -46.9%
COc1ccc(NC(=O)CN(C)C(=O)c2ccc3c(c2)OCCO3)cc1 -34.4%
O=C1c2ccccc2C(=O)c2c1ccc1c(=O)n(C3CCCCC3)[nH]c21 -32.3%
O=Cc1ccc(O)c(O)c1 -45.6%
COc1ccc(NC(=O)/C(C#N)=C\C=C\c2ccco2)cc1 -37.5%
CC=Cc1cc2c(c(=O)o1)C(=O)C(O)C(C)O2 (configuration not stated) -33.1%
COc1ccc(-c2cc(C(F)F)n3ncc(C(=O)N4CCN5CCCC5C4)c3n2)cc1 (configuration not stated) -31.4%
CCC1=Nc2cc(C(=O)NCc3ccco3)ccc2Sc2ccccc21 -42.7%

As a short view, some entries already given:
Max response, negative = inhibition, inconclusive:
C=CCN1C(=O)c2ccc(C(=O)OCC(=O)Nc3ccc(S(N)(=O)=O)cc3)cc2C1=O -31.8%
CC(C)C1C(=O)N(Cc2cn(CC3CCCCC3)nn2)CCS(=O)(=O)N1Cc1ccc(-c2ccccc2)cc1 (configuration not stated) -32.1%
Cc1ccc2[nH]c(C)c(CCNC(=O)c3cc4cc([N+](=O)[O-])ccc4oc3=O)c2c1 -33.9%
Nc1nc(=S)c2ncn(C3OC(CO)CC3O)c2[nH]1 (configuration not stated) -30.3%

Following part.

Max response, negative = inhibition, inactive:
CCOC(=O)N1CCC(NC(=O)c2ccc3c(c2)N(Cc2ccccc2)CCS3)CC1 -11.6%
O=C1c2ccccc2-c2nc3ccccc3cc21 -4.61%
Cc1ccc(S(=O)(=O)N(C)C[C@@H]2Oc3ccc(NC(=O)CCC(F)(F)F)cc3CC(=O)N([C@@H](C)CO)C[C@@H]2C)cc1 -21.6%
CCCCCCCCCCOC(=O)C[N+](C)(C)C/C=C(/C)Cl 0.661%
CCN(Cc1ccncc1)Cc1cn[nH]c1-c1cc(OC)c(OC)c(OC)c1 0%
COC(=O)C[C@H]1CC[C@@H](NC(=O)Nc2ccc3c(c2)OCO3)[C@@H](CO)O1 -29.1%
O=C(CN1CCN(Cc2ccc(F)cc2)CC1)Nc1nc2ccccc2s1 1.79%
O=C(CCNC(=O)c1ccccc1Cl)Nc1ccc2c(c1)OCCO2 -22.6%
Cc1ccc(-c2nnc(Nc3ccc(CC(N)=O)cc3)c3ccccc23)cc1S(=O)(=O)NCCO 8.12%
Cc1ccc(Cl)cc1N1CCN(C(=S)NCc2ccco2)CC1 -27.9%
COc1cc(/C=C/C(=O)OCC(=O)Nc2ccccc2Sc2ccc(Cl)cc2)ccc1O 14.9%
CCc1ccc(NC(=S)N2CCN(c3cccc(OC)c3)CC2)cc1 -5.4%
COc1ccc(C(=O)CCc2nc3ccccc3s2)cc1 5.09%
C/C(CC(=O)Nc1ccc(N(C)C)cc1)=N\NC(=O)c1ccc([N+](=O)[O-])cc1Cl 2.06%
COc1ccccc1Cc1c(-c2cccc(Cl)c2)nc2ccc(C)cn12 7.48%
COc1ccc(Cc2n[nH]c(=S)o2)cc1 -19.8%
c1ccc(-n2nnnc2SCc2cn3cccnc3n2)cc1 -18.9%
Cc1nn(-c2ccccc2)c2sc(C(=O)OCc3nnc(-c4ccccc4)o3)cc12 -1.55%
CC1(C)Cc2c(cnn2-c2cccc(F)c2)C(NC(=O)Cn2cccn2)C1 (configuration not stated) -9.18%
CC(C)(C)C(c1nc2ccccc2[nH]1)n1c(-c2cc(Cl)cc(Cl)c2)nc2ccccc21 (configuration not stated) 61.7%
O=S(=O)(CCN1CCN(c2ccccn2)CC1)c1ccc(Cl)cc1Cl -4.76%
O=S(=O)(NCCN1CCOCC1)c1ccc(F)c(Cl)c1 6.85%
CCC(C(=O)NC1CCCC1)N(C(=O)Cn1nnc(-c2ccc(OC)c(OC)c2)n1)c1cccc(O)c1 (configuration not stated) 3.35%
CCCOc1ccc(-c2nnn(CC(=O)Nc3cccc(C(=O)OC)c3)n2)cc1 4.53%
O=C(COC(=O)c1ccc(Cl)nc1)NCCNC(=O)COC(=O)c1ccc(Cl)nc1 -15.5%
